These results are taken from patent US12503498B2 (Genzyme Corporation, priority 2012, dated 2025).

A short description of the data set: peptide synthesis. Conditions: late stage modification step; for final HPLC purity: reversed-phase HPLC.

Bounds are passed on as bounds.

On to Aminooxy-Cys-MC-VC-PABC-MMAE, for which the step yield was 62% and the “final HPLC purity” value is given as over 96%.
For Aminooxy-Cys-MC-VC-PABC-PEG8-Dol10 the same measures were 46% and over 96%.
